Data as given in PubChem BioAssay AID1224830 (NIAID, 2016).
Test: 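Regulators of TLR4 signalling towards TNF-alpha in macrophage-like cells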 (primary screen). Cells: human THP-1 monocytic leukaemia cells, TNF dual-luciferase reporter clone, PMA-differentiated to macrophage-like cells. Reagent: siRNA pool against human genes, 50 nM. Duration: LPS for 4 h, given about 3 days after siRNA transfection. Challenge: bacterial LPS (TLR4 ligand), 10 ng/ml. Read-out: 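TNF firefly reporter luminescence divided by renilla, normalised to the plate median, then turned into a robust z-score for each replicate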. Reading the numbers: TNF reporter robust z-score: higher = stronger TNF reporter response to LPS. Call rule: 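Each well counts as active if its z-score is over 2.8 or under -1.5; controls are left without a call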.
The whole screen tested about 18,000 reagents; below is a part drawn at random. About 2,900 of all reagents (16%) count as active. 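Calls are made per well; low scores hint the gene aids the LPS response, high scores that it dampens it.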 Repeated entries: four replicate wells of each siRNA pool. Reagent sequences are not shown.

gene	TNF reporter robust z-score	outcome
SRRM2	1.8	inactive
SRRM2	-0.23	inactive
SRRM2	-1.03	inactive
SRRM2	-0.4	inactive
PDGFRA	-0.9	inactive
PDGFRA	-0.89	inactive
PDGFRA	-0.24	inactive
PDGFRA	-1.18	inactive
NDUFB5	0.95	inactive
NDUFB5	0.98	inactive
NDUFB5	0.43	inactive
NDUFB5	0.88	inactive
SLC25A18	-1.18	inactive
SLC25A18	-0.38	inactive
SLC25A18	-0.6	inactive
VPS45	0.3	inactive
VPS45	-0.09	inactive
VPS45	0.32	inactive
VPS45	0.82	inactive
SLC35B2	0.72	inactive
SLC35B2	1.69	inactive
SLC35B2	1.78	inactive
SLC35B2	1.68	inactive
SAE1	1.69	inactive
SAE1	1.41	inactive
SAE1	2.26	inactive
SAE1	1.84	inactive
ZMYM4	-0.86	inactive
ZMYM4	-0.16	inactive
ZMYM4	1.34	inactive
ZMYM4	1.17	inactive
ZFYVE21	-0.19	inactive
ZFYVE21	0.23	inactive
ZFYVE21	-0.55	inactive
ZFYVE21	0.02	inactive
HDAC11	-0.26	inactive
HDAC11	0.03	inactive
HDAC11	0.3	inactive
HDAC11	0.79	inactive
IRAG1	1.53	inactive
IRAG1	0.48	inactive
IRAG1	8.87	active
IRAG1	0.42	inactive
ST6GAL1	-0.16	inactive
ST6GAL1	0.94	inactive
ST6GAL1	0.29	inactive
ST6GAL1	0.35	inactive
MLYCD	0.76	inactive
MLYCD	-1.02	inactive
MLYCD	-0.96	inactive
MLYCD	-1.25	inactive
CCDC66	2.63	inactive
CCDC66	2.23	inactive
CCDC66	0.19	inactive
CCDC66	3.16	active
KRT72	-0.37	inactive
KRT72	-0.43	inactive
KRT72	0.95	inactive
KRT72	0.73	inactive
TXNDC9	-0.4	inactive
TXNDC9	0.66	inactive
TXNDC9	-0.14	inactive
TXNDC9	0.19	inactive
PLK2	1.92	inactive
PLK2	1.59	inactive
PLK2	1.75	inactive
PLK2	2.52	inactive
LOC642219 (retired record)	2.02	inactive
LOC642219 (retired record)	0.66	inactive
LOC642219 (retired record)	2.77	inactive
LOC642219 (retired record)	-0.3	inactive
PXDN	-0.96	inactive
PXDN	-0.99	inactive
PXDN	-1.48	inactive
PXDN	-0.61	inactive
SLC6A12	-0.15	inactive
SLC6A12	0.19	inactive
SLC6A12	-0.53	inactive
SLC6A12	0.29	inactive
CEACAM1	0.79	inactive
CEACAM1	1.53	inactive
CEACAM1	0.95	inactive
CEACAM1	1.4	inactive
STAG3L1	1.88	inactive
STAG3L1	-0.56	inactive
STAG3L1	-0.77	inactive
STAG3L1	0.29	inactive
GCSAM	0.18	inactive
GCSAM	-0.55	inactive
GCSAM	-0.24	inactive
GCSAM	-0.15	inactive
AHCYL2	-0.54	inactive
AHCYL2	-0.06	inactive
AHCYL2	0.04	inactive
AHCYL2	-0.92	inactive
CBX5	-0.22	inactive
CBX5	0.57	inactive
CBX5	0.18	inactive
CBX5	0.6	inactive
VANGL1	0.14	inactive
VANGL1	-0.37	inactive
VANGL1	-0.39	inactive
VANGL1	-0.61	inactive
BEND5		inactive
BEND5	0.2	inactive
BEND5	-0.07	inactive
BEND5	0.52	inactive
ITGBL1	2.05	inactive
ITGBL1	0.6	inactive
ITGBL1	1.61	inactive
ITGBL1	2.44	inactive

Records above with an active call, once more:
gene	TNF reporter robust z-score	outcome
IRAG1	8.87	active
CCDC66	3.16	active
